Experimental data from PMC10754140.
No constants are given. Whether binding was seen depends on the method and setting. In cells and extracts the contact can be indirect. A result given as binding can be weak or reduced; the word gives no strength. Tags and fused reporters may be left off the sequences shown.

Sequences of proteins named here, by UniProt entry; tags and fusion partners are left off. A change or cut given only in a name is not applied to a line headed by its entry.
UniProt P23258: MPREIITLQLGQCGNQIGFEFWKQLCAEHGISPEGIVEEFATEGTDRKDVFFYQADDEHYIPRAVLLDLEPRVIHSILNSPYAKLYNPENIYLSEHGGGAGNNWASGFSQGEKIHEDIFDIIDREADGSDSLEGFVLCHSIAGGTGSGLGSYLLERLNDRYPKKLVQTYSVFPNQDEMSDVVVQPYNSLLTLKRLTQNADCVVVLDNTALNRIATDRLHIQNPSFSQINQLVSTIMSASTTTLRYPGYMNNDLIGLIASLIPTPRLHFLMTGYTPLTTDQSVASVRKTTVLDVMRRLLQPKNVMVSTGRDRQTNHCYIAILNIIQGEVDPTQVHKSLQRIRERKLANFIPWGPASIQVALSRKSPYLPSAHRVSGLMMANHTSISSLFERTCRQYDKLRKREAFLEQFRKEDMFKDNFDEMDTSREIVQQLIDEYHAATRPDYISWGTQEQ

Biological target: γ‐tubulin (human (endogenous in MCF10A)) (UniProt P23258)
Test: co-IP; 293T cells transfected with the indicated plasmids; lysis in 20 mM Tris-HCl, 150 mM NaCl, 1 mM EDTA, 1 mM EGTA, 1% NP-40, 2.5 mM sodium pyrophosphate, 10% glycerol, pH 7.5; beads 4 °C 4 h, five washes, immunoblotting

B1: GFP‐CEP131 (protein, UniProt Q9UPN4 1-1083)
chain: MKGTRAIGSVPERSPAGVDLSLTGLPPPVSRRPGSAATTKPIVRSVSVVTGSEQKRKVLEATGPGGSQAINNLRRSNSTTQVSQPRSGSPRPTEPTDFLMLFEGSPSGKKRPASLSTAPSEKGATWNVLDDQPRGFTLPSNARSSSALDSPAGPRRKECTVALAPNFTANNRSNKGAVGNCVTTMVHNRYTPSERAPPLKSSNQTAPSLNNIIKAATCEGSESSGFGKLPKNVSSATHSARNNTGGSTGLPRRKEVTEEEAERFIHQVNQATVTIQRWYRHQVQRRGAGAARLEHLLQAKREEQRQRSGEGTLLDLHQQKEAARRKAREEKARQARRAAIQELQQKRALRAQKASTAERGPPENPRETRVPGMRQPAQELSPTPGGTAHQALKANNTGGGLPAAGPGDRCLPTSDSSPEPQQPPEDRTQDVLAQDAAGDNLEMMAPSRGSAKSRGPLEELLHTLQLLEKEPDVLPRPRTHHRGRYAWASEVTTEDDASSLTADNLEKFGKLSAFPEPPEDGTLLSEAKLQSIMSFLDEMEKSGQDQLDSQQEGWVPEAGPGPLELGSEVSTSVMRLKLEVEEKKQAMLLLQRALAQQRDLTARRVKETEKALSRQLQRQREHYEATIQRHLAFIDQLIEDKKVLSEKCEAVVAELKQEDQRCTERVAQAQAQHELEIKKLKELMSATEKARREKWISEKTKKIKEVTVRGLEPEIQKLIARHKQEVRRLKSLHEAELLQSDERASQRCLRQAEELREQLEREKEALGQQERERARQRFQQHLEQEQWALQQQRQRLYSEVAEERERLGQQAARQRAELEELRQQLEESSSALTRALRAEFEKGREEQERRHQMELNTLKQQLELERQAWEAGRTRKEEAWLLNREQELREEIRKGRDKEIELVIHRLEADMALAKEESEKAAESRIKRLRDKYEAELSELEQSERKLQERCSELKGQLGEAEGENLRLQGLVRQKERALEDAQAVNEQLSSERSNLAQVIRQEFEDRLAASEEETRQAKAELATLQARQQLELEEVHRRVKTALARKEEAVSSLRTQHEAAVKRADHLEELLEQHRRPTPSTK
binding: binds
